Among the data in PubChem BioAssay AID330 (DTP/NCI, 2004) are survivor count and T/C values, retold here.

The assay deals with P388 leukemia ip, CD2F1 mice, survival T/C. Put plainly: NCI In Vivo Anticancer Drug Screen. Data for tumor model P388 Leukemia (intraperitoneal) in CD2F1 (CDF1) mice. The conditions noted are these: T/C endpoint: median survival time, higher T/C = longer survival.
[1] abbreviates: dose: 200.0 mg/kg/injection, schedule: Q01DX005 (ip), vehicle: saline.
The mark [2] stands for this setting: dose: 100.0 mg/kg/injection, schedule: Q01DX009 (ip), vehicle: saline with Tween-80.
Where [3] appears, read: dose: 200.0 mg/kg/injection, schedule: Q01DX009 (ip), vehicle: saline with Tween-80.
[4] abbreviates: dose: 400.0 mg/kg/injection, schedule: Q04DX002 (ip), vehicle: Klucel (hydroxypropylcellulose) (HPC).
Setting [5] is: dose: 100.0 mg/kg/injection, schedule: Q01DX005 (ip), vehicle: saline with Tween-80.
The mark [6] stands for this setting: dose: 200.0 mg/kg/injection, schedule: Q01DX005 (ip), vehicle: saline with Tween-80.
Setting [7] is: dose: 50.0 mg/kg/injection, schedule: Q01DX009 (ip), vehicle: saline with Tween-80.
Setting [8] is: dose: 100.0 mg/kg/injection, schedule: Q01DX005 (ip), vehicle: Klucel (hydroxypropylcellulose) (HPC).
Setting [9] is: dose: 200.0 mg/kg/injection, schedule: Q01DX005 (ip), vehicle: Klucel (hydroxypropylcellulose) (HPC).
The mark [10] stands for this setting: dose: 50.0 mg/kg/injection, schedule: Q01DX005 (ip), vehicle: saline with Tween-80.
Setting [11] is: dose: 100.0 mg/kg/injection, schedule: Q01DX009 (ip), vehicle: Klucel (hydroxypropylcellulose) (HPC).

Each structure is given as a SMILES string. The list is a part of this screen's results and no random one: it is rich in T/C values a quarter to a half above the control, in often repeated tests (any T/C) and in doses without a T/C. Further doses and runs are listed elsewhere. T/C: endpoint of the treated group in % of that of the vehicle group. Some doses have a count of surviving animals in place of a T/C: the source holds a T/C of zero for them, seemingly a mark for toxic or unscored doses. Some survivor counts are full or nearly so, which does not show that the dose was tolerated: the source hardly ever lists a survival T/C far under the control, and the zero likely stands for such cases as well. Counts of survivors are from the toxicity check (mostly the fifth day) where no day follows; animals may have died later. Schedules are NCI's codes, read here as Q, the interval in days (D) or hours (H), X, the number of doses. For survival time, the PubChem record calls one and a half times the control and up active, and a quarter to a half above the control has no call in these data; cut-offs in other NCI protocols can differ.

On to `COc1ccc2c(c1)[C@@]13CCCC[C@H]1[C@H](N(C)CC3)C21CC1`, for which the survivor count (dose: 400.0 mg/kg/injection, schedule: Q01DX001 (ip), vehicle: Klucel (hydroxypropylcellulose) (HPC)) is given as 0 of 6.
As to `CC1CNCC(C)N1Cc1ccccc1` (stereo unspecified), the survivor count under setting [1] was 0 of 6.
With `COP(=S)(NC(C)C)Oc1ccc(C)cc1[N+](=O)[O-]` (stereo unspecified), the survivor count (dose: 25.0 mg/kg/injection, schedule: Q01DX009 (ip), vehicle: saline with Tween-80) is 6 of 6.
With `C=CC(=NC(C)(C)C)Nc1ccccc1C(=O)OC`, the survivor count under setting [2] is 3 of 6 and the survivor count under setting [3] is 0 of 6.
In the case of `C1=C[N-]c2c3c(ccc2=C1)=CC=C[N-]3.O=S(=O)(O)O.[Zn+2]`, the survivor count is listed as 0 of 6 (dose: 100.0 mg/kg/injection, schedule: Q04DX002 (ip), vehicle: Klucel (hydroxypropylcellulose) (HPC)); 0 of 6 (dose: 200.0 mg/kg/injection, schedule: Q04DX002 (ip), vehicle: Klucel (hydroxypropylcellulose) (HPC)); 0 of 6 under setting [4].
Take `C[N+](C)=NC1CCC(C(C)(C)C)CC1` (stereo unspecified): the survivor count is reported as 3 of 5 under setting [5] and 0 of 6 under setting [6].
Turning to `Nc1ccc(N=O)c(N)n1`, the survivor count runs as follows: (dose: 3.12 mg/kg/injection, schedule: Q01DX009 (ip), vehicle: saline) 6 of 6; (dose: 6.25 mg/kg/injection, schedule: Q01DX009 (ip), vehicle: saline) 4 of 6; (dose: 25.0 mg/kg/injection, schedule: Q01DX009 (ip), vehicle: saline) 6 of 6; under setting [7], 3 of 6; under setting [2], 2 of 6; (dose: 100.0 mg/kg/injection, schedule: Q01DX009 (ip), vehicle: saline) 0 of 6. Besides, the survivor count by setting is: under setting [3], 0 of 6; (dose: 200.0 mg/kg/injection, schedule: Q01DX009 (ip), vehicle: saline) 0 of 6; (dose: 400.0 mg/kg/injection, schedule: Q01DX009 (ip), vehicle: saline with Tween-80) 0 of 6.
For the compound `CC1(C)N=C(N)N=C(N)N1c1ccc(OCCNC(=O)Nc2ccc(S(=O)(=O)F)cc2)c(Cl)c1`, where the note is “dose: 100.0 mg/kg/injection, schedule: Q04DX003 (ip), vehicle: saline”, the T/C is 130 % of control. Besides, the survivor count (dose: 200.0 mg/kg/injection, schedule: Q04DX003 (ip), vehicle: saline) is 4 of 6.
Consider `Cn1c(=O)oc2cc(N)c(Cl)cc21`, for which the survivor count reads like this: under setting [8], 4 of 6; under setting [9], 2 of 6.
For the compound `CC(C)CC1C(=O)N2CCCC2C2(O)OC(NC(=O)C3C=C4c5cccc6[nH]cc(c56)CC4N(C)C3)(C(C)C)C(=O)N12` (stereo unspecified), for the setting “dose: 10.0 mg/kg/injection, schedule: Q01DX009 (ip), vehicle: Klucel (hydroxypropylcellulose) (HPC)”, the survivor count is listed as 6 of 6.
As to `OCCN(CCO)CC(O)COc1cccc2ccccc12` (stereo unspecified), the survivor count (dose: 400.0 mg/kg/injection, schedule: Q01DX009 (ip), vehicle: saline) is 0 of 6.
As to `CC(=O)[OH+]c1c(Br)cc(Br)cc1C(=O)[O-].CC(=O)[OH+]c1c(Br)cc(Br)cc1C(=O)[O-].[Cu+2]`, the survivor count under setting [10] was 3 of 6; the survivor count (dose: 100.0 mg/kg/injection, schedule: Q01DX005 (ip), vehicle: saline) is 0 of 6; the survivor count under setting [1] is 0 of 6.
Take `CC(C)c1cc(C(=O)O)c(O)c(C(C)C)c1.CC(C)c1cc(C(=O)O)c(O)c(C(C)C)c1.[Cu]`: the survivor count reads like this: under setting [10], 0 of 6; under setting [5], 0 of 6; under setting [6], 0 of 6.
For `N#CC[N+]1(Cc2ccccn2)CCCC1`, under “dose: 240.0 mg/kg/injection, schedule: Q01DX005 (ip), vehicle: saline”, the survivor count is 1 of 6.
For the compound `O=C(O)c1ccccc1.[Eu]`, the survivor count under setting [11] is on record as 6 of 6.
For the compound `O=C1C=C2CCC3=CC(=O)C(=CC3=O)CCC(=C1)C2=O`, the survivor count under setting [4] was 0 of 5.
With `CN1CCCC(Cl)(C(=O)c2ccccc2)C1` (stereo unspecified), the survivor count (dose: 400.0 mg/kg/injection, schedule: Q04DX003 (ip), vehicle: saline) is 1 of 6.
`O=Cc1ccc2c(c1)C(O)NC(=O)O2` (stereo unspecified): the survivor count under setting [6] was 0 of 6.
Consider `COc1cc(C(C)c2cc3c(cc2O)OCO3)cc(OC)c1OC` (stereo unspecified), for which the T/C (dose: 240.0 mg/kg/injection, schedule: Q01DX005 (ip), vehicle: saline with Tween-80) is 127 % of control.
In the case of `CC1=C(O)c2ccccc2C(=O)C1=O`, the survivor count under setting [7] is listed as 6 of 6 and the survivor count under setting [2] is listed as 3 of 6.
`CCOC(=O)CSc1ccc(C)cc1C(O)(C(F)(F)F)C(F)(F)F`: the survivor count under setting [7] is given as 1 of 6.
In the case of `Nc1ncnc2c1ncn2C1OC(COS(N)(=O)=O)C(O)C1O` (stereo unspecified), the survivor count is 5 of 6 (dose: 0.18 mg/kg/injection, schedule: Q01DX005 (ip), vehicle: saline); 0 of 5 (dose: 0.37 mg/kg/injection, schedule: Q01DX005 (ip), vehicle: saline); 2 of 5 (dose: 0.75 mg/kg/injection, schedule: Q01DX001 (ip), vehicle: saline); 0 of 5 (dose: 0.75 mg/kg/injection, schedule: Q01DX005 (ip), vehicle: saline); 1 of 5 (dose: 1.5 mg/kg/injection, schedule: Q01DX001 (ip), vehicle: saline); 0 of 5 (dose: 1.5 mg/kg/injection, schedule: Q01DX005 (ip), vehicle: saline). In addition, the survivor count is, setting by setting: (dose: 1.56 mg/kg/injection, schedule: Q01DX001 (ip), vehicle: saline) 1 of 5; (dose: 3.12 mg/kg/injection, schedule: Q01DX001 (ip), vehicle: saline) 0 of 5; (dose: 6.25 mg/kg/injection, schedule: Q01DX001 (ip), vehicle: saline) 0 of 5; (dose: 12.5 mg/kg/injection, schedule: Q01DX001 (ip), vehicle: saline with Tween-80) 0 of 5; (dose: 12.5 mg/kg/injection, schedule: Q01DX001 (ip), vehicle: saline) 0 of 5; (dose: 25.0 mg/kg/injection, schedule: Q01DX001 (ip), vehicle: saline with Tween-80) 0 of 5. In addition, the survivor count (dose: 50.0 mg/kg/injection, schedule: Q01DX001 (ip), vehicle: saline with Tween-80) was 0 of 5; the survivor count (dose: 100.0 mg/kg/injection, schedule: Q01DX001 (ip), vehicle: saline with Tween-80) is listed as 0 of 5; the survivor count (dose: 200.0 mg/kg/injection, schedule: Q01DX001 (ip), vehicle: saline with Tween-80) is listed as 0 of 5. Also, under “dose: 0.37 mg/kg/injection, schedule: Q01DX001 (ip), vehicle: saline”, the T/C was 125 % of control.
With `Cc1cc(NS(=O)(=O)c2ccc(N)cc2)no1.[Ag]`, the survivor count is, setting by setting: (dose: 50.0 mg/kg/injection, schedule: Q01DX009 (ip), vehicle: Klucel (hydroxypropylcellulose) (HPC)) 1 of 6; under setting [11], 0 of 6; (dose: 200.0 mg/kg/injection, schedule: Q01DX009 (ip), vehicle: Klucel (hydroxypropylcellulose) (HPC)) 0 of 6.
With `C#CC(C)C(C(C)=O)C(=O)c1ccccc1.[C-]#[O+].[C-]#[O+].[C-]#[O+].[C-]#[O+].[C-]#[O+].[C-]#[O+].[Co].[Co]` (stereo unspecified), the survivor count by setting is: under setting [8], 5 of 6; under setting [9], 0 of 6.
